Structures can show the parent of a compound that is named as a salt. The list shows a part of the results. The calls rarely recur for the same compound in another form.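 Kinases were expressed as nanoluciferase fusions in K562 cells and luminescence was read every 4 h between 2 and 18 h as percent of control, DMSO set to 100% and a positive control to 0%. A time point counts as decreased when the signal drops significantly (2 sigma). The hit call is the authors' own, does not follow from the count of time points alone, and its rule is not shown.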

This test concerns the target MAP2K1 (UniProt Q02750). Description: number of time points (of 5) at which kinase-Nluc abundance scored as decreased, DMSO-normalised (count); higher = more persistent destabilization. Conditions: K562; 2-18 h.
`CCc1c(C(=O)NNC(=O)C(O)c2cc(F)cc(F)c2)ccc(O)c1C` (stereo not given) (10 µM): the “number of time points” value came out at 0.
Take `COc1cc2ncnc(Nc3ccc(Cl)cc3F)c2cc1OC` (10 µM): the “number of time points” value came out at 0.
On to `COc1cc(/C=C/C(=O)NCC(O)c2ccc(O)cc2)ccc1O` (stereo not given) [N-Feruloyloctopamine] (2.5 µM), for which the “number of time points” value came to 0.
Regarding `NC(=O)c1nc(Nc2ccccc2)sc1NC(=O)C1CCCCC1` (10 µM), the “number of time points” value was determined as 0.
`O=c1cc(CN2CCOCC2)occ1OCCCCCSc1ccnc2cc(C(F)(F)F)ccc12` (10 µM): the “number of time points” value amounted to 0.
For the compound `O=C(O)CCC(=O)Nc1ccc(Br)cn1` [Bikinin] (10 µM), the “number of time points” value amounted to 0.
On to `CC[C@@H](Oc1nc(Oc2cc(C)cc(-c3cccc(CN)c3)c2)c(F)cc1F)C(=O)O` (10 µM), for which the “number of time points” value came out at 0.
With `C[C@]1(O)CCN(c2nc(N3C[C@H](O)[C@@H](O)C3)cc(C(F)(F)F)c2C#N)C1` (10 µM), the “number of time points” value stood at 0.
The same measure for `COc1ccccc1-c1cc(Nc2cccc(CS(N)(=O)=O)c2)ncn1` (10 µM): 0; for `CC(=O)c1c(C)cc2cccc(O)c2c1O` [Nepodin] (10 µM): 0.
For `NC(=O)c1ccc2[nH]ccc2c1` (10 µM) the value was 0; for `COc1cc2c(cc1OC)CN(S(=O)(=O)c1ccc(OC)c(N3CCN(C(=O)c4ccc(F)cc4C(F)(F)F)CC3)c1)CC2` (10 µM), 0; for `OCCn1cc(-c2ccc3c(c2)CC/C3=N\O)c(-c2ccncc2)n1` (10 µM), 0.
`C[C@@H]1CC[C@@H](Nc2nc(NC(C)(C)C)ncc2C(N)=O)C[C@H]1O` (10 µM): the “number of time points” value stood at 0.
Turning to `CCc1cc2c(cc1N1CCC(N3CCOCC3)CC1)C(C)(C)c1[nH]c3cc(C#N)ccc3c1C2=O` [Alectinib] (10 µM), the “number of time points” value worked out at 0.
Take `COCCNc1nc2ccc(C#CC3(O)CCCCC3)cc2n1-c1ccnc(N)n1` (10 µM): the “number of time points” value was 0.
The same measure for `Cc1[nH]c(/C=C2\C(=O)Nc3ccccc32)c(C)c1CCC(=O)O` [Orantinib] (10 µM): 0.
For `Nc1cc(C(F)(F)F)c(-c2cc(N3CCOCC3)nc(N3CCOCC3)n2)cn1` [Buparlisib (Hydrochloride)] (2.5 µM) the value was 0.
The same measure for `CCN1CCN(Cc2ccc(Nc3ncc(F)c(-c4cc(F)c5nc(C)n(C(C)C)c5c4)n3)nc2)CC1` [Abemaciclib (methanesulfonate)] (10 µM): 0; for `Cc1ccc2cc(-c3c(C)ccc(C(=O)c4c(-c5ccccc5)n(C)n(-c5ccccc5)c4=O)c3N)ccc2n1` (2.5 µM): 0; for `FC(F)(c1ccc2ncccc2c1)c1nnc2ccc(-c3ccncc3)nn12` (10 µM): 0.
With `O=C1N[C@@H](Cc2c[nH]c3ccccc23)C(=O)N2CCC[C@@H]12` [Brevianamide F] (10 µM), the “number of time points” value is 0.
Consider `Cc1nc2sccn2c(=O)c1CCN1CCC(=C(c2ccccc2)c2ccc(F)cc2)CC1` (10 µM), for which the “number of time points” value came out at 0.
On to `O=c1[nH]c(=O)n([C@@H]2O[C@H](CO)[C@@H](O)[C@@H]2O)cc1/C=C/Br` [Sorivudine] (10 µM), for which the “number of time points” value was found to be 0.
On to `COc1cc2nccc(Oc3ccc(NC(=O)NC4CC4)c(Cl)c3)c2cc1C(N)=O` [Lenvatinib (mesylate)] (10 µM), for which the “number of time points” value came to 0.
The same measure for `CN1C(=O)N[C@H](Cc2c[nH]c3c(Cl)cccc23)C1=O` [Necrostatin 2] (10 µM): 0; for `CCN1CCN(Cc2ccc(Nc3ncc(F)c(-c4cc(F)c5nc(C)n(C(C)C)c5c4)n3)nc2)CC1` [Abemaciclib] (2 µM): 0.
The same measure for `Cc1ccc2nc(NCCN)c3ncc(C)n3c2c1` (2.5 µM): 0; for `CNC(=O)c1c(F)cccc1Nc1nc(Nc2cc3c(cc2OC)CCN3C(=O)CN(C)C)nc2[nH]ccc12` (10 µM): 0.
For `Cn1nccc1Nc1nccc(-c2ccn([C@H](CO)c3ccc(Cl)c(F)c3)c(=O)c2)n1` [Ravoxertinib hydrochloride] (10 µM) the value was 0; for `CN(C)CCSSCCNC(=O)C1CCN(C(=O)CSc2ccc(Cl)cc2)CC1` (10 µM), 0; for `CNC(=O)c1cc(COc2nnc(Nc3ccc(Cl)cc3)c3ccoc23)ccn1` [Telatinib] (10 µM), 0.
Turning to `NCCNS(=O)(=O)c1cccc2c(Cl)cccc12` [A-3 (hydrochloride)] (10 µM), the “number of time points” value turned out to be 0.
For `O=C(Nc1ccc(CN2CCOCC2)cc1)c1ccc(-c2cccc(Cl)c2)o1` (10 µM) the value was 0.
In the case of `CCN1CCN(Cc2ccc(-c3cc4c(N[C@H](C)c5ccccc5)ncnc4[nH]3)cc2)CC1` (2.5 µM), the “number of time points” value came to 0.
